Results are given in words; binding and its absence hold for the method and conditions named. Some binding calls cover weakened binding; strength is not graded here.
What was measured:
[1] = biological target: T1, BoYb CS_MUT1 (Drosophila) (UniProt Q9VNP5); assay: ReLo
T1 sequence: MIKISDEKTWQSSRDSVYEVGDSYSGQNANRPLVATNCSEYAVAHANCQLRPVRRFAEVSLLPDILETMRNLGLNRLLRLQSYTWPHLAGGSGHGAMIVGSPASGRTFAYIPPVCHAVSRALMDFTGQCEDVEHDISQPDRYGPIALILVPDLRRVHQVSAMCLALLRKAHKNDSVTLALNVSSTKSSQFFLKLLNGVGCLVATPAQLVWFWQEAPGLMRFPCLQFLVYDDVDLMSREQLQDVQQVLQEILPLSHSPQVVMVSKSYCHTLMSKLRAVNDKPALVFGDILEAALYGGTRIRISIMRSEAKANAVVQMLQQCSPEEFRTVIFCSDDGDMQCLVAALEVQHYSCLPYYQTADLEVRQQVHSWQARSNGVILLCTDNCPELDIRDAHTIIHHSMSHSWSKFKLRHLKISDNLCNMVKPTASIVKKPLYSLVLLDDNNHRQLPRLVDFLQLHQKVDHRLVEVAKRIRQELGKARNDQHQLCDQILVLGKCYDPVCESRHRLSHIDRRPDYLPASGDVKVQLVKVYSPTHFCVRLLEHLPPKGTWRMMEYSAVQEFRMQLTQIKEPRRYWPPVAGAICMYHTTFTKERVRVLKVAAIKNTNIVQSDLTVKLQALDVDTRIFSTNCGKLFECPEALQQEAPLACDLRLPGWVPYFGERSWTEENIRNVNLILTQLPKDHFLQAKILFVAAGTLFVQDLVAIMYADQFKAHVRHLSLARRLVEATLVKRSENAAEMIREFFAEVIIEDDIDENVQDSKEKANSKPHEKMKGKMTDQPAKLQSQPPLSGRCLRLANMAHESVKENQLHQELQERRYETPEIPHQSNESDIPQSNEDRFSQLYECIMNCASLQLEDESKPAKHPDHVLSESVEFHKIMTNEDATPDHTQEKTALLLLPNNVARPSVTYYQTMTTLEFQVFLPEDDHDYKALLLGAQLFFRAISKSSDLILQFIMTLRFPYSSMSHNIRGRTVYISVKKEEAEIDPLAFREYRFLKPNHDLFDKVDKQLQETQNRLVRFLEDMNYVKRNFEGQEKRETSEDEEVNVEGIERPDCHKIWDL

[2] = biological target: T2, BoYb NTD_MUT (Drosophila) (UniProt Q9VNP5); assay: ReLo
T2 sequence: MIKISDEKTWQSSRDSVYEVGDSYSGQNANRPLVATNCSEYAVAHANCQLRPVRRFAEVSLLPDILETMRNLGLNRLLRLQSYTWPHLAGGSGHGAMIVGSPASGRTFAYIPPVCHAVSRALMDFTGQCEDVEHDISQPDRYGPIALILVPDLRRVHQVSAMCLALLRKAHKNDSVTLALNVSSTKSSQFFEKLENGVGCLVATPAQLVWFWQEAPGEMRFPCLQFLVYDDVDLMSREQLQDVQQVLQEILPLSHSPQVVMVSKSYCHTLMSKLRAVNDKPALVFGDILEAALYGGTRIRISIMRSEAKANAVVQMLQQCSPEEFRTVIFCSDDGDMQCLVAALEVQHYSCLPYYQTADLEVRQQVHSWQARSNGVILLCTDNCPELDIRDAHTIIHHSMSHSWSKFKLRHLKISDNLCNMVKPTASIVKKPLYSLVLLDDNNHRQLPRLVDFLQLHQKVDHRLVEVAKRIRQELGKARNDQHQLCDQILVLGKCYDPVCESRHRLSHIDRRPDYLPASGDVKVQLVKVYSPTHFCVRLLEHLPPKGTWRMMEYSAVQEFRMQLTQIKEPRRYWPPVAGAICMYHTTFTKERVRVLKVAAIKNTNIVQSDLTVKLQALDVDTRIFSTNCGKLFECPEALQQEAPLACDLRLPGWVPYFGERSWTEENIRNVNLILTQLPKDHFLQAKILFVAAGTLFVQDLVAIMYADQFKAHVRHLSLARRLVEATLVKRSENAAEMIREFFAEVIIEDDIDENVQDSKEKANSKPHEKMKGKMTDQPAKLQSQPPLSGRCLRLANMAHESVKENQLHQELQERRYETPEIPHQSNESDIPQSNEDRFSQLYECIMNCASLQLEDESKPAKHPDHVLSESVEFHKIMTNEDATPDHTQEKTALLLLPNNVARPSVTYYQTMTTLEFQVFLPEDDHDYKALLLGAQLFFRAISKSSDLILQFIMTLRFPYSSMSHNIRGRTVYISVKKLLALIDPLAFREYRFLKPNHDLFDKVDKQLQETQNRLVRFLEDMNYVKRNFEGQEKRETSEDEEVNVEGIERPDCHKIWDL

- binding [1]: binds
- binding [2]: binds
B1: Vreteno (protein, UniProt Q9VCU7 1-691)
chain: MESESSQDDWSAFDPMSREYYDQVGNRYTNESGQKLIMEAPLPPKDEKEQRATRQAKYPYLVVPKSSPYVTEKMLINFFGRALIKEMEFRRLSRVYFVYFENIASLETAQQRVQRYPNLIKCITGRPQKEREITSDPVTSTEPMPTPGPAISATERTPVNHNREVPISTGGQNHPEFFRPPLVTKDDYKRGSLLATNDPIQRYLNVKYEFALERHDIYKLKDETRIPQVVLHFRSGRTIPLSTVAVTEEDKTKSLLEDGVSKCVVCQNWTDTFCKLCKMPFCNASCFADVAEQHKQACGKGEILNLDEKVGRKYPKPGLPPSGSKVRITAFEQTNVVYVRSADIQIDIAYYTVLTEVMMLGKDASKLQSTPVCGQIVLYKFEGHMSRAMVLNVDNIKEIYVVFIDFGSVEVTQLERLYECSSYLAGLTCYPVAVKLRGVPRRFVGPNIREVMYELDQSLVFNIKYSSREYDTSKGMQVVVMTEIDINRSLNRLFKTILTPVEPSVSDLGYKEDCLPYIPLHCGKNINVVVMDNTFIQCGFIYCTSIDLAYEVTKMQRDIQEYGEKIAKCATYAPPINELCIAKYEGKWRRGLSVELVGDGYPSILFIDYGNIVPTHVTDIRPYPPQFIFPIMTTQLDLIGVPEKPTDEQIKWLDKNYPIGSVITCSEITFDEETNSYSTRIEKLQEFLSLD
